The list shows a part of the results.
Molecular target: T1, OsSMF1 (Oryza sativa, UniProt Q6ZLB0 1-436)
T1 sequence: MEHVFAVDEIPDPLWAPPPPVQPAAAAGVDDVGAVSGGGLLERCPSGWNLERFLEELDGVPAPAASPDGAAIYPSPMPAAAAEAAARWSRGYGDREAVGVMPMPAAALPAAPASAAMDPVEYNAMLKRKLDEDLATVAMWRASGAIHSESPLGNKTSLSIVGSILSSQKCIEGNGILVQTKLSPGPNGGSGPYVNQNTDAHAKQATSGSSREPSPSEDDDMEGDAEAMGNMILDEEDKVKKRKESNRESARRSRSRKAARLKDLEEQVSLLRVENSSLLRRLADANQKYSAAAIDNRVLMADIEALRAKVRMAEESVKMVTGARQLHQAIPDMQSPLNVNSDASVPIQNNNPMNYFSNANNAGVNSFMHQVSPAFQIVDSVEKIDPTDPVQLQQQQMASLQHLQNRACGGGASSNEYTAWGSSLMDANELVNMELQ
Assay: protein-binding microarray (RPBM); PBS, 2% BSA, 51.3 ng/ul salmon testes DNA, 50 uM zinc acetate, 200 nM TF, 25 C, 1 h; high values mean tight binding
Details: protein: recombinant; tags: N-terminal polyhistidine and DsRed monomer fusion (pET32a); chain copies: 2; label: CyDye5-dUTP incorporated in the synthesized complementary strand; 3' TTTTT single-stranded linker to array surface; dsDNA, one strand shown
Summary of the method: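 The binding signal is fluorescence intensity per array feature (arbitrary units). Readings came from an Axon 4000B scanner after a washed, 2% BSA-blocked, double-stranded custom Agilent array had been incubated for 1 h at 25 °C with 200 nM protein and 50 µM zinc acetate. The protein was a Ni–NTA-purified transcription factor fused N-terminally to polyhistidine and DsRed, expressed in E. coli BL21-CodonPlus.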

Sequence	binding signal
TCACATCCGAGCTGAGCTCCTGACACAGTGACACTACTGGCGGAGTCACCTAGTGCAG	4310 fluorescence intensity (a.u.)
TAGCAAAATCGTAAATAAAATTCAGCACTAGTCATATCCACGGAGTCACCTAGTGCAG	3660 fluorescence intensity (a.u.)
TTAGATAGCCGTAGATTACACCTCATCTCTCGCCACCTTACGGAGTCACCTAGTGCAG	5070 fluorescence intensity (a.u.)
TACTTACCCCTATCTTCATCATCGTCATCTGTATAACAAACGGAGTCACCTAGTGCAG	3260 fluorescence intensity (a.u.)
CAGAACACTTCATAATATTACGTGATACTATATATTATTGCGGAGTCACCTAGTGCAG	3160 fluorescence intensity (a.u.)
ACCATGTTCTAATGTGACACCCCGTTTTCCATGTGGAGAGCGGAGTCACCTAGTGCAG	4990 fluorescence intensity (a.u.)
CGGGCGCACGTGTTTCATCCCTCTAATTCTGAATCCCCACCGGAGTCACCTAGTGCAG	3440 fluorescence intensity (a.u.)
ATTGTTGAGGGGAATACCACGTGTGGTATTTGCAATATGCCGGAGTCACCTAGTGCAG	4370 fluorescence intensity (a.u.)
TGTTCTGTGTTCGTGTTTGGGATTGGGCGCGGCGTGTGCCCGGAGTCACCTAGTGCAG	12500 fluorescence intensity (a.u.)
ACCATCTCCCTGCGTGCGTTGGCAACCAAAGGAGATACCACGGAGTCACCTAGTGCAG	4070 fluorescence intensity (a.u.)
TTATATTAAAAGAATTGCTGACTGTACTCCCACGTTTACTCGGAGTCACCTAGTGCAG	16100 fluorescence intensity (a.u.)
CACCCGCCGCTGCTCTGCCTACTCGCCGGCCACCTCCTCACGGAGTCACCTAGTGCAG	3720 fluorescence intensity (a.u.)
GGTGGCCTCCCTTTCGTCTTCAACAAGGTTTGCGTCGGCGCGGAGTCACCTAGTGCAG	3450 fluorescence intensity (a.u.)
AGCCTCATCCGCTCCCTTGTCTCCATCATCACCGTCGCCACGGAGTCACCTAGTGCAG	3550 fluorescence intensity (a.u.)
AGCGGCGGCTGCCACGTCCTCTACTGGATCGATAGATCGACGGAGTCACCTAGTGCAG	13700 fluorescence intensity (a.u.)
ATAGTTGTGATTAGATTGTGACGTACACAATGAGTATGCACGGAGTCACCTAGTGCAG	5250 fluorescence intensity (a.u.)
AGGAGCACGGACACCACGGTGGCGGTGACGCTGTCGTCATCGGAGTCACCTAGTGCAG	6180 fluorescence intensity (a.u.)
CTCTTTCACTCGCTCACCTGCTCCATGCTCGTCCAGTACTCGGAGTCACCTAGTGCAG	3270 fluorescence intensity (a.u.)
CACACCACATCACACCGCACACCACACCGATCCCGACCAACGGAGTCACCTAGTGCAG	3230 fluorescence intensity (a.u.)
AATGCCCTAGCAAGGCCCACACGTGGCGCCTCCTCCTCCTCGGAGTCACCTAGTGCAG	13400 fluorescence intensity (a.u.)
CTAGCTTTTCTAGATTCTTAGAAGCTGACTACCAACCAGCCGGAGTCACCTAGTGCAG	3410 fluorescence intensity (a.u.)

Shown as comma-separated lines: entries from further up.
Sequence,binding signal
ACCATCTCCCTGCGTGCGTTGGCAACCAAAGGAGATACCACGGAGTCACCTAGTGCAG,4070 fluorescence intensity (a.u.)
TTATATTAAAAGAATTGCTGACTGTACTCCCACGTTTACTCGGAGTCACCTAGTGCAG,16100 fluorescence intensity (a.u.)
CACCCGCCGCTGCTCTGCCTACTCGCCGGCCACCTCCTCACGGAGTCACCTAGTGCAG,3720 fluorescence intensity (a.u.)

(next part)

Sequence	binding signal
ACCAGCCACGTAGGCGCCACGTCAGCTAAAACCGCCTTCACGGAGTCACCTAGTGCAG	19900 fluorescence intensity (a.u.)
CAAAGCAATCTTGGAGTCATCTTCATTTCCATGTCCTGTTCGGAGTCACCTAGTGCAG	3410 fluorescence intensity (a.u.)
GCCACCTCGGCCTCCTCCTCCTCGACATCCACGTCGCTCGCGGAGTCACCTAGTGCAG	4090 fluorescence intensity (a.u.)
GACGGCTCTGGCAAGCGAGGGCCACGATTGCGACGAGCGGCGGAGTCACCTAGTGCAG	3390 fluorescence intensity (a.u.)
CGCCGGCGTCGGACGCTGCCTGCGCCGAGGGCGCTGCTGCCGGAGTCACCTAGTGCAG	3390 fluorescence intensity (a.u.)
CCGCCGGTCGCTGAGCCGGGACTCGCTGCCGCGGTGCGTCCGGAGTCACCTAGTGCAG	35400 fluorescence intensity (a.u.)
ACCCGCCGCGCCTCCTGCGCCGCCGCCGCCGCGGCCCCTGCGGAGTCACCTAGTGCAG	5790 fluorescence intensity (a.u.)
CGAAGCCTCGATGTCACGCGGACGCCAACACAGCAGGCGCCGGAGTCACCTAGTGCAG	3200 fluorescence intensity (a.u.)
ATGGAAGAAATGATAGGCTTGTCTAATAATTGTTGGTTGTCGGAGTCACCTAGTGCAG	33200 fluorescence intensity (a.u.)
CACCGCCACGGCCCGCGCTGCGTCAGCCGACGAACCCACCCGGAGTCACCTAGTGCAG	4430 fluorescence intensity (a.u.)
GCTAGCCTTCCTTGCCAACTTTGCACATGTATATAGAGTCCGGAGTCACCTAGTGCAG	3390 fluorescence intensity (a.u.)
TGTTAGAAAGTCTTATAATATAAAACGGAGGAAATATTTACGGAGTCACCTAGTGCAG	6480 fluorescence intensity (a.u.)
TTTAATTCAAATGCCAGCTAAGCGCTACGTCAACCCTACACGGAGTCACCTAGTGCAG	15500 fluorescence intensity (a.u.)
TGATCTCCTTCACTAAAAGAACTGTACGCTTGTTCTTTTGCGGAGTCACCTAGTGCAG	3870 fluorescence intensity (a.u.)
TGTCGCTGTTGTATACAGTGTATGAGTGTGTGACTGTGTGCGGAGTCACCTAGTGCAG	6540 fluorescence intensity (a.u.)
AACAGAGGTATTCTTCGTGTCTATGGGCCTGTTTGGGGAGCGGAGTCACCTAGTGCAG	26300 fluorescence intensity (a.u.)
TAATTTGTACCCGCGTACGTGTACACGTTGCTGACTTGCTCGGAGTCACCTAGTGCAG	10600 fluorescence intensity (a.u.)
CGCATACCGGCCAGAAACACGACGGCGACGAGGTGCACTACGGAGTCACCTAGTGCAG	41500 fluorescence intensity (a.u.)
ATTGTCCTCCCTTCTCCTCGCCTGTCAGCCTGTCACTACTCGGAGTCACCTAGTGCAG	3650 fluorescence intensity (a.u.)
CCCCTCTTAATTATTCAACCCTCCCAGAAATATGACTCATCGGAGTCACCTAGTGCAG	6290 fluorescence intensity (a.u.)
TGCGCCGCACCGCGTCGCGCCACGCCGCGTGGGCCCGCGGCGGAGTCACCTAGTGCAG	3790 fluorescence intensity (a.u.)
